Three molecules from article doi:10.1101/2025.08.07.669166 can be followed below.

Like-named read-outs stand apart in the source and are kept apart here. These are yes or no findings as the source states them, for the method shown. Binding seen in cells or lysates may run through a third protein. A yes stands for co-enrichment or nearness to the bait. Other partners may have been found. For some assays here: Sequences can lack the tags named with a protein.

Common to all, as to experiment: affinity purification with mass spectrometry
The target of assay [1] is T1, glucocorticoid receptor (human (endogenous in primary human cells, human cell lines and human PDX tumours)), P04150.
T1 chain: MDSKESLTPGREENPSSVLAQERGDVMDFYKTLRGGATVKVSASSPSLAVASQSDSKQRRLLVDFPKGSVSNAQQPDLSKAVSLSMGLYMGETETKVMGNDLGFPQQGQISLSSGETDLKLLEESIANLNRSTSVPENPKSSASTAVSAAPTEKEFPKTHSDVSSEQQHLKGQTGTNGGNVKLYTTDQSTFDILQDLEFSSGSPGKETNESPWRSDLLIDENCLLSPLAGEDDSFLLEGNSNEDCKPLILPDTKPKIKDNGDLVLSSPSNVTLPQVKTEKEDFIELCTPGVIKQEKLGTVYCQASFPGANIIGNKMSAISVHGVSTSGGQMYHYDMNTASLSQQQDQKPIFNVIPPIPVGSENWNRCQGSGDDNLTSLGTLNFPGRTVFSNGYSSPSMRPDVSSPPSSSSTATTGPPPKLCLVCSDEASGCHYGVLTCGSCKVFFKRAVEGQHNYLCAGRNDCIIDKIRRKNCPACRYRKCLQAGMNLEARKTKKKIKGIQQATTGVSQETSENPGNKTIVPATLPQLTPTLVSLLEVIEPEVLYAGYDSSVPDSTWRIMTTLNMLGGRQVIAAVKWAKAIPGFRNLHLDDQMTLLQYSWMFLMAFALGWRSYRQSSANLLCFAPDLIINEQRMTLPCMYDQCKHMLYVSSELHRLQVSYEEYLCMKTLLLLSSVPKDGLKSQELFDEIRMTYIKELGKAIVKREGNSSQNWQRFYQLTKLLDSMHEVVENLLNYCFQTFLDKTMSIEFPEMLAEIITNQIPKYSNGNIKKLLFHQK
The following applies: remark: other sources report otherwise.

For assay [2], the target named is glucocorticoid receptor (human (endogenous in primary human cells, human cell lines and human PDX tumours)) (UniProt P04150).
The target is the same in assay [3]. The source holds these as a separate data set.
For assay [4] the target is unchanged. The source holds these as a separate data set.

B1: RXRA, P19793 1-462 (protein)
chain: MDTKHFLPLDFSTQVNSSLTSPTGRGSMAAPSLHPSLGPGIGSPGQLHSPISTLSSPINGMGPPFSVISSPMGPHSMSVPTTPTLGFSTGSPQLSSPMNPVSSSEDIKPPLGLNGVLKVPAHPSGNMASFTKHICAICGDRSSGKHYGVYSCEGCKGFFKRTVRKDLTYTCRDNKDCLIDKRQRNRCQYCRYQKCLAMGMKREAVQEERQRGKDRNENEVESTSSANEDMPVERILEAELAVEPKTETYVEANMGLNPSSPNDPVTNICQAADKQLFTLVEWAKRIPHFSELPLDDQVILLRAGWNELLIASFSHRSIAVKDGILLATGLHVHRNSAHSAGVGAIFDRVLTELVSKMRDMQMDKTELGCLRAIVLFNPDSKGLSNPAEVEALREKVYASLEAYCKHKYPEQPGRFAKLLLRLPALRSIGLKCLEHLFFFKLIGDTPIDTFLMEMLEAPHQMT
On to B1, for which the binding result in assay [1] is given as “binds”.

B2: SATB1 (protein, UniProt Q01826 1-763)
chain: MDHLNEATQGKEHSEMSNNVSDPKGPPAKIARLEQNGSPLGRGRLGSTGAKMQGVPLKHSGHLMKTNLRKGTMLPVFCVVEHYENAIEYDCKEEHAEFVLVRKDMLFNQLIEMALLSLGYSHSSAAQAKGLIQVGKWNPVPLSYVTDAPDATVADMLQDVYHVVTLKIQLHSCPKLEDLPPEQWSHTTVRNALKDLLKDMNQSSLAKECPLSQSMISSIVNSTYYANVSAAKCQEFGRWYKHFKKTKDMMVEMDSLSELSQQGANHVNFGQQPVPGNTAEQPPSPAQLSHGSQPSVRTPLPNLHPGLVSTPISPQLVNQQLVMAQLLNQQYAVNRLLAQQSLNQQYLNHPPPVSRSMNKPLEQQVSTNTEVSSEIYQWVRDELKRAGISQAVFARVAFNRTQGLLSEILRKEEDPKTASQSLLVNLRAMQNFLQLPEAERDRIYQDERERSLNAASAMGPAPLISTPPSRPPQVKTATIATERNGKPENNTMNINASIYDEIQQEMKRAKVSQALFAKVAATKSQGWLCELLRWKEDPSPENRTLWENLSMIRRFLSLPQPERDAIYEQESNAVHHHGDRPPHIIHVPAEQIQQQQQQQQQQQQQQQAPPPPQPQQQPQTGPRLPPRQPTVASPAESDEENRQKTRPRTKISVEALGILQSFIQDVGLYPDEEAIQTLSAQLDLPKYTIIKFFQNQRYYLKHHGKLKDNSGLEVDVAEYKEEELLKDLEESVQDKNTNTLFSVKLEEELSVEGNTDINTDLKD
Take B2: the binding result in assay [2] and in assay [3] was “binds” each time.

B3: FOXA1 (protein, UniProt P55317 1-472)
chain: MLGTVKMEGHETSDWNSYYADTQEAYSSVPVSNMNSGLGSMNSMNTYMTMNTMTTSGNMTPASFNMSYANPGLGAGLSPGAVAGMPGGSAGAMNSMTAAGVTAMGTALSPSGMGAMGAQQAASMNGLGPYAAAMNPCMSPMAYAPSNLGRSRAGGGGDAKTFKRSYPHAKPPYSYISLITMAIQQAPSKMLTLSEIYQWIMDLFPYYRQNQQRWQNSIRHSLSFNDCFVKVARSPDKPGKGSYWTLHPDSGNMFENGCYLRRQKRFKCEKQPGAGGGGGSGSGGSGAKGGPESRKDPSGASNPSADSPLHRGVHGKTGQLEGAPAPGPAASPQTLDHSGATATGGASELKTPASSTAPPISSGPGALASVPASHPAHGLAPHESQLHLKGDPHYSFNHPFSINNLMSSSEQQHKLDFKAYEQALQYSPYGSTLPASLPLGSASVTTRSPIEPSALEPAYYQGVYSRPVLNTS
Take B3: the binding entry in assay [3] and in assay [4] was “binds” each time.
